These are yes or no findings as the source states them, for the method shown. Binding seen in cells or lysates may run through a third protein. Some entries that bind do so weakly or less than the wild type. Tags and fused reporters may be left off the sequences shown.

Protein sequences, listed by entry. Tags and fused reporters are not part of them.
UniProt O23320: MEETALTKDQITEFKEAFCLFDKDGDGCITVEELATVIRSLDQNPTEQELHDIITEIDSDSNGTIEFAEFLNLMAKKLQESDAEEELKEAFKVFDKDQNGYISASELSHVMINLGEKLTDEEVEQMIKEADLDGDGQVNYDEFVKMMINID

Test in all cases: pull-down
For experiment [1], the target named is GST-CML8 (Arabidopsis thaliana) (UniProt O23320).
Experiment [2] has as its target T1, TGA5-GST (Arabidopsis thaliana) (UniProt Q39163).
T1 sequence: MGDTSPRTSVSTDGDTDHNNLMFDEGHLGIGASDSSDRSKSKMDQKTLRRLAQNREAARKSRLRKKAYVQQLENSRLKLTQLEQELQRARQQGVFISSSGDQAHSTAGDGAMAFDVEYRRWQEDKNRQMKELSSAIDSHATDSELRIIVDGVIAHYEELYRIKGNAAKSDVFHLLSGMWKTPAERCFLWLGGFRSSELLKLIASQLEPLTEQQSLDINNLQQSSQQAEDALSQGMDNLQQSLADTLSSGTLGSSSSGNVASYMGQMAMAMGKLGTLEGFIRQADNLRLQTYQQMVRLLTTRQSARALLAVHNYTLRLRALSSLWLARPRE

Experiment [3] addresses CAM5-GST (Arabidopsis thaliana) (UniProt Q682T9).

B1: His-tagged ACA8 (aa 1-180) (domain or fragment, UniProt Q9LF79 1-180)
chain: MTSLLKSSPGRRRGGDVESGKSEHADSDSDTFYIPSKNASIERLQQWRKAALVLNASRRFRYTLDLKKEQETREMRQKIRSHAHALLAANRFMDMGRESGVEKTTGPATPAGDFGITPEQLVIMSKDHNSGALEQYGGTQGLANLLKTNPEKGISGDDDDLLKRKTIYGSNTYPRKKGKG
As to B1, in experiment [1], the binding result is “binds”.

B2: WRKY53-His (protein, UniProt Q9SUP6 1-324)
chain: MEGRDMLSWEQKTLLSELINGFDAAKKLQARLREAPSPSSSFSSPATAVAETNEILVKQIVSSYERSLLLLNWSSSPSVQLIPTPVTVVPVANPGSVPESPASINGSPRSEEFADGGGSSESHHRQDYIFNSKKRKMLPKWSEKVRISPERGLEGPQDDVFSWRKYGQKDILGAKFPRSYYRCTHRSTQNCWATKQVQRSDGDATVFEVTYRGTHTCSQAITRTPPLASPEKRQDTRVKPAITQKPKDILESLKSNLTVRTDGLDDGKDVFSFPDTPPFYNYGTINGEFGHVESSPIFDVVDWFNPTVEIDTTFPAFLHESIYY
Regarding B2, the binding entry in experiment [2] and in experiment [3] was “binds” throughout.

These data come from doi:10.1101/2023.01.24.525215.
